Measurements from publication PMC3998917.
No constants are given. Whether binding was seen depends on the method and setting. In cells and extracts the contact can be indirect. Some results given as binding are weak or reduced against the parent protein; the word gives no strength. Where a sequence is shown, tags or fusion partners need not be part of it.

By UniProt entry, the sequences of proteins in these tests, tags left out.
UniProt Q59LN9: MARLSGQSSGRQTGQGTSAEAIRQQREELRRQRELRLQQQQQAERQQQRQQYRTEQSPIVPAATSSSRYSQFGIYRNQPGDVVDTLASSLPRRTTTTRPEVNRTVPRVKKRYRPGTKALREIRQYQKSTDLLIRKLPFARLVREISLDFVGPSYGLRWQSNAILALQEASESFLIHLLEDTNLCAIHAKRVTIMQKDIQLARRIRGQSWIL

Tests used:
Rad52-V5 (C. albicans) = biological target: T1, Rad52-V5 (C. albicans) (UniProt Q59NG2); assay: co-IP; anti-V5 on Protein A-Sepharose 4B beads added to 0.8 ml crude extract (around 3 mg total protein) of Rad51-V5 or Rad52-V5 C. albicans strains, overnight at 4°C, washed four times with TBS-T; western blot with anti-CENP-A^CaCse4; untagged strains and no-antibody fractions as controls
T1 sequence: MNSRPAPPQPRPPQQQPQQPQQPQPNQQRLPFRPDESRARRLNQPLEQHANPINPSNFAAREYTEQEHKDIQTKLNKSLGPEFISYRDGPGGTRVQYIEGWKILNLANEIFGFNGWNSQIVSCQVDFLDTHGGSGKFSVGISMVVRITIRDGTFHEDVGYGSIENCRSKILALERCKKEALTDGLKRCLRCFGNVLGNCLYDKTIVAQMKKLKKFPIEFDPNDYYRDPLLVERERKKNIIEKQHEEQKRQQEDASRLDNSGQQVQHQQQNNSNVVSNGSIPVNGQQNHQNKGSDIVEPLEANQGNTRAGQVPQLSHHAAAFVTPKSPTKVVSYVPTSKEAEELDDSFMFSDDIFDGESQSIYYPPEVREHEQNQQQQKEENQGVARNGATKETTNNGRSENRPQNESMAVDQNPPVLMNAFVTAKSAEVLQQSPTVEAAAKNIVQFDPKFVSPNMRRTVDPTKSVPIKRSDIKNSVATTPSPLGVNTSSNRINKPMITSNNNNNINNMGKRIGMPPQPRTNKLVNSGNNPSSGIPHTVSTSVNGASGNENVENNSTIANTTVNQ

Rad51-V5 (C. albicans) = biological target: T2, Rad51-V5 (C. albicans) (UniProt Q59UY8); assay: as above
T2 sequence: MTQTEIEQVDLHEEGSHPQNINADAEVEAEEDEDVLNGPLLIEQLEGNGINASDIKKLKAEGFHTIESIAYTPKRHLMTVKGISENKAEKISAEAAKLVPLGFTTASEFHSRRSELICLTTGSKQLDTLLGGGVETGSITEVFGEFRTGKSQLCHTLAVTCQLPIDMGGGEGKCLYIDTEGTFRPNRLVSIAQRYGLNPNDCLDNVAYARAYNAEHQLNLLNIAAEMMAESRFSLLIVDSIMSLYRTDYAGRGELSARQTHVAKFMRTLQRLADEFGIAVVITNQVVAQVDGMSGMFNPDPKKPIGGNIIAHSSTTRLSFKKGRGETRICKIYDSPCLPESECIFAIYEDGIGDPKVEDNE

binding (Rad52-V5 (C. albicans)): binds
binding (Rad51-V5 (C. albicans)): binds
Substance: CENP-A^CaCse4 (from UniProt Q59LN9 1-211)
